Here are results for 1 substance from publication PMC12651396.

Protein sequences, listed by entry. Tags and fused reporters are not part of them.
UniProt P67809: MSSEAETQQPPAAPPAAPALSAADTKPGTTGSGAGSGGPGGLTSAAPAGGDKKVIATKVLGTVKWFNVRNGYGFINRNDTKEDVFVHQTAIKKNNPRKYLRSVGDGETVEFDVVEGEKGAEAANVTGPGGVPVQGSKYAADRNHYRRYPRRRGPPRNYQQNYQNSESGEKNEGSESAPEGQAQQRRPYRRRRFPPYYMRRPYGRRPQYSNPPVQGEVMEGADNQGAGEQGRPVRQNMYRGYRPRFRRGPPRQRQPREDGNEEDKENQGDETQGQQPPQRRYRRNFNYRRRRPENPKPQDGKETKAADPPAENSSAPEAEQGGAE

No constants are given. Whether binding was seen depends on the method and setting. In cells and extracts the contact can be indirect. A yes stands for co-enrichment or nearness to the bait. Other partners may have been found. Sequences can lack the tags named with a protein.

The target in this assay is T1, FLAG-tagged fibroblast growth factor 12 (FGF12) (human) (UniProt P61328).
T1 sequence: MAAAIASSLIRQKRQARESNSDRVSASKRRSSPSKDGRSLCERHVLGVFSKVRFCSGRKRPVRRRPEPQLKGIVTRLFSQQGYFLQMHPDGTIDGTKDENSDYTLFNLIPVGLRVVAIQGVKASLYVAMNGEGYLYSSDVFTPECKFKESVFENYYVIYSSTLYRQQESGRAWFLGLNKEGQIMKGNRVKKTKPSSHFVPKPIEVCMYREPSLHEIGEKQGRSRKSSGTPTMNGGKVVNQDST
In words: affinity purification with mass spectrometry; lysates of LNCaP FGF12 and control cells; anti-Flag antibody or normal IgG, Protein A/G agarose beads; eluted proteins analysed by mass spectrometry, triplicate repeats.

In the case of “Y-box binding protein 1 (YB1) (from UniProt P67809 1-324)”, the binding entry is reported as “binds”.
